This data set relates to human BCL-2 (residues 1–50 and 92–207). The data set is described as follows: Isothermal titration calorimetry (ITC) of BCL-2 with Beclin1 fragment. The format is binding. The note with it: 25 °C, 20 mM Tris-HCl (pH 7.4), 100 mM NaCl, Table S2. On the procedure:
Figure 3 M11 Interacts Much More Tightly with Beclin1 than BCL-2 and BCL-XL (A) ITC analysis. The measurement was carried out by titrating 0.1 mM of M11 or BCL-2 into 5 μM of the indicated Beclin1 fragment. The K D values were deduced from curve fittings of the integrated heat per mol of added ligand. (B) M11–Beclin1 interface is tighter than that of BCL-XL–Beclin1. The structures of M11–Beclin1 fragment (left) and BCL-XL–Beclin1 peptide (right) are compared side by side. In both the structures, the five consensus BH3 residues of the bound α-helices and the side chains of M11 or BCL-XL interacting with those residues are shown as sticks and labeled. Noted are the tighter interactions of the N-terminal region of Beclin1 with the α3 helix of M11 than the corresponding region in the BCL-XL–Beclin1 helix (indicated by dotted circles).
Each of the DNA fragments coding for M11 (residues 1–137), mouse BCL-XL (residues 1–44 and 85–196) or mouse Beclin1 (residues 101–267) was cloned into pPROEX HTa. A plasmid containing the DNA segment coding for human BCL-2 (residues 1–50 and 92–207) was also constructed. The resulting protein lacks the internal long loop (residues 51–91) and contains a replacement of residues 35–50 with residues 33–48 of BCL-XL, which was necessary for the solubility of the protein as reported earlier. Each construct was introduced into the E. coli BL21(DE3) strain. The proteins were expressed at 21 °C overnight and purified using a Ni-NTA column and a Hitrap Q anion exchange column.
All measurements were carried out at 25 °C on a MicroCalorimetry System (MicroCal). Protein samples were dialyzed against the solution containing 20 mM Tris-HCl (pH 7.4) and 100 mM NaCl. The samples were degassed for 20 min and centrifuged to remove any residuals prior to the measurements. Dilution enthalpies were measured in separate experiments (titrant into buffer) and subtracted from the enthalpies of the binding between the protein and the titrant. Data were analyzed using the Origin software (OriginLab Corp.).
On the technique in general: Isothermal titration calorimetry measures the heat released or taken up as one component is titrated into another.

B1: Beclin1(101–267): mouse Beclin1 fragment containing residues 101–267, expressed as a soluble form in E. coli (protein)
chain: ASDGGTMENLSRRLKVTGDLFDIMSGQTDVDHPLCEECTDTLLDQLDTQLNVTENECQNYKRCLEILEQMNEDDSEQLQRELKELALEEERLIQELEDVEKNRKVVAENLEKVQAEAERLDQEEAQYQREYSEFKRQQLELDDELKSVENQVRYAQIQLDKLKKTNV
Turning to B1, the “-T∆S (BCL-2 + Beclin1)” value was found to be 2.48 kcal/mol, the “∆G (BCL-2 + Beclin1)” value was -7.88 kcal/mol and the “∆H (BCL-2 + Beclin1)” value was -10.36 ± 2.08 kcal/mol.
